Results published in article doi:10.1101/2024.08.15.608058.
These are yes or no findings as the source states them, for the method shown. Binding seen in cells or lysates may run through a third protein. Some binding calls cover weakened binding; strength is not graded here.

Amino acid sequences for entries named in this document (tags omitted).
UniProt Q5TEA3: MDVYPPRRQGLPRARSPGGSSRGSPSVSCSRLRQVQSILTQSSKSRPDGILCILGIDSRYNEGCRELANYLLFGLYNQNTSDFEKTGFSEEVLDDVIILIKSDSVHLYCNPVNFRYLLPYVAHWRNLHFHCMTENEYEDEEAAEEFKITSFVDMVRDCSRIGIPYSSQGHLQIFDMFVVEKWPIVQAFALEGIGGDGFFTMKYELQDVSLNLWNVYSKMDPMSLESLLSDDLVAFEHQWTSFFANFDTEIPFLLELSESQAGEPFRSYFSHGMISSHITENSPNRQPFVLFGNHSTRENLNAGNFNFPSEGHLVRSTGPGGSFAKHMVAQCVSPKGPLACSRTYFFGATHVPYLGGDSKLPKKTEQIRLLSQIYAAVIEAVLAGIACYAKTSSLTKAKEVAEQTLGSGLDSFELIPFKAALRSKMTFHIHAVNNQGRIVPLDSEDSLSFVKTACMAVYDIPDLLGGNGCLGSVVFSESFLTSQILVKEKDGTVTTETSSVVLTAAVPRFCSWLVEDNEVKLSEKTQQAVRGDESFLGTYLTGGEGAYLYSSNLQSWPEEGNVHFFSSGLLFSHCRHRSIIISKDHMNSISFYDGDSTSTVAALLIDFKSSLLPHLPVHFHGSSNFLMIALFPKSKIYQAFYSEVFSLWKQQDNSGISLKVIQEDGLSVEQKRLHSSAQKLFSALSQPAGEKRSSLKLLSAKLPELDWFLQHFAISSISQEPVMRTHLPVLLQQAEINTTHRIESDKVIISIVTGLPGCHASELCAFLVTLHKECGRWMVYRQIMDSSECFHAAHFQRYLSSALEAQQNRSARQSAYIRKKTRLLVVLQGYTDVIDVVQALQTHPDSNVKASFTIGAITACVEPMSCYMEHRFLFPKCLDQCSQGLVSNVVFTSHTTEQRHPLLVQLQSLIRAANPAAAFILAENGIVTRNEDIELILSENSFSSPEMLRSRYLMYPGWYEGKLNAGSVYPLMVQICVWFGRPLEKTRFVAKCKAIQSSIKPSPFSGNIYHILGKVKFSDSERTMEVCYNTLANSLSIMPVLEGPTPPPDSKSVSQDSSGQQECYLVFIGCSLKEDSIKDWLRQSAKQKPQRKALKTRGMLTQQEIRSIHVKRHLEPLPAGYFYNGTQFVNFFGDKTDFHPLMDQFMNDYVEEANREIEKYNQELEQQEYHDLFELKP

Target: DNAAF9 (human Shulin), endogenous in human airway epithelial cells (human (endogenous in HAECs)) (UniProt Q5TEA3)
Experiment: co-IP

B1: IFT74 (protein, UniProt Q96LB3 1-600)
chain: MASNHKSSAARPVSRGGVGLTGRPPSGIRPLSGNIRVATAMPPGTARPGSRGCPIGTGGVLSSQIKVAHRPVTQQGLTGMKTGTKGPQRQILDKSYYLGLLRSKISELTTEVNKLQKGIEMYNQENSVYLSYEKRAETLAVEIKELQGQLADYNMLVDKLNTNTEMEEVMNDYNMLKAQNDRETQSLDVIFTERQAKEKQIRSVEEEIEQEKQATDDIIKNMSFENQVKYLEMKTTNEKLLQELDTLQQQLDSQNMKKESLEAEIAHSQVKQEAVLLHEKLYELESHRDQMIAEDKSIGSPMEEREKLLKQIKDDNQEIASMERQLTDTKEKINQFIEEIRQLDMDLEEHQGEMNQKYKELKKREEHMDTFIETFEETKNQELKRKAQIEANIVALLEHCSRNINRIEQISSITNQELKMMQDDLNFKSTEVQKSQSTAQNLTSDIQRLQLDLQKMELLESKMTEEQHSLKSKIKQMTTDLEIYNDLPALKSSGEEKIKKLHQERMILSTHRNAFKKIMEKQNIEYEALKTQLQENETHSQLTNLERKWQHLEQNNFAMKEFIATKSQESDYQPIKKNVTKQIAEYNKTIVDALHSTSGN
binding: binds

B2: IFT81 (protein, UniProt Q8WYA0 1-676)
chain: MSDQIKFIMDSLNKEPFRKNYNLITFDSLEPMQLLQVLSDVLAEIDPKQLVDIREEMPEQTAKRMLSLLGILKYKPSGNATDMSTFRQGLVIGSKPVIYPVLHWLLQRTNELKKRAYLARFLIKLEVPSEFLQDETVADTNKQYEELMEAFKTLHKEYEQLKISGFSTAEIRKDISAMEEEKDQLIKRVEHLKKRVETAQNHQWMLKIARQLRVEKEREEYLAQQKQEQKNQLFHAVQRLQRVQNQLKSMRQAAADAKPESLMKRLEEEIKFNLYMVTEKFPKELENKKKELHFLQKVVSEPAMGHSDLLELESKINEINTEINQLIEKKMMRNEPIEGKLSLYRQQASIISRKKEAKAEELQEAKEKLASLEREASVKRNQTREFDGTEVLKGDEFKRYVNKLRSKSTVFKKKHQIIAELKAEFGLLQRTEELLKQRHENIQQQLQTMEEKKGISGYSYTQEELERVSALKSEVDEMKGRTLDDMSEMVKKLYSLVSEKKSALASVIKELRQLRQKYQELTQECDEKKSQYDSCAAGLESNRSKLEQEVRRLREECLQEESRYHYTNCMIKNLEVQLRRATDEMKAYISSDQQEKRKAIREQYTKNTAEQENLGKKLREKQKVIRESHGPNMKQAKMWRDLEQLMECKKQCFLKQQSQTSIGQVIQEGGEDRLIL
binding: binds

B3: DNAI2 (protein, UniProt Q9GZS0 1-605)
chain: MEIVYVYVKKRSEFGKQCNFSDRQAELNIDIMPNPELAEQFVERNPVDTGIQCSISMSEHEANSERFEMETRGVNHVEGGWPKDVNPLELEQTIRFRKKVEKDENYVNAIMQLGSIMEHCIKQNNAIDIYEEYFNDEEAMEVMEEDPSAKTINVFRDPQEIKRAATHLSWHPDGNRKLAVAYSCLDFQRAPVGMSSDSYIWDLENPNKPELALKPSSPLVTLEFNPKDSHVLLGGCYNGQIACWDTRKGSLVAELSTIESSHRDPVYGTIWLQSKTGTECFSASTDGQVMWWDIRKMSEPTEVVILDITKKEQLENALGAISLEFESTLPTKFMVGTEQGIVISCNRKAKTSAEKIVCTFPGHHGPIYALQRNPFYPKNFLTVGDWTARIWSEDSRESSIMWTKYHMAYLTDAAWSPVRPTVFFTTRMDGTLDIWDFMFEQCDPTLSLKVCDEALFCLRVQDNGCLIACGSQLGTTTLLEVSPGLSTLQRNEKNVASSMFERETRREKILEARHREMRLKEKGKAEGRDEEQTDEELAVDLEALVSKAEEEFFDIIFAELKKKEADAIKLTPVPQQPSPEEDQVVEEGEEAAGEEGDEEVEEDLA
binding: binds
